The values that follow come from article PMC8692152.

Chains of the proteins cited; added tags and fusions are not shown. Lines headed by an entry give the natural chain unless they say otherwise; changes in a name come on top.
UniProt Q16254: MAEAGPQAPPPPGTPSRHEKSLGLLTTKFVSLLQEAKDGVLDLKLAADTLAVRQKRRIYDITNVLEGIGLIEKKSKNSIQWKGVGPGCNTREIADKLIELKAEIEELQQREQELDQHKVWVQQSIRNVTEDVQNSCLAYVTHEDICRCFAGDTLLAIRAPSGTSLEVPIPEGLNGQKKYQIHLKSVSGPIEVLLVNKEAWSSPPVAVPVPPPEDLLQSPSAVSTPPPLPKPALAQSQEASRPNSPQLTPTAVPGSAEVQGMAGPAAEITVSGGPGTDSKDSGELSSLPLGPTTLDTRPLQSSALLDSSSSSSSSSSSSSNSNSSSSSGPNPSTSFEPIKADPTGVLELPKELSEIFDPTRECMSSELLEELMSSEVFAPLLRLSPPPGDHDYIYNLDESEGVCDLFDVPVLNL

This test deals with T1, mCherry-Id1 fusion protein (Inhibitor of differentiation/DNA binding 1) (UniProt P41134).
T1 sequence: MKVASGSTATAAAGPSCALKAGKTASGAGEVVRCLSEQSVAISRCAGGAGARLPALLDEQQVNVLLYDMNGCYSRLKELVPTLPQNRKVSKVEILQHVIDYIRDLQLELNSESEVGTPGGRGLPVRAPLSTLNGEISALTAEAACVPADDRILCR
The test can be described thus: co-IP; lysates of HepG2 cells overexpressing mCherry-Id1 and EGFP-E2F4; IP with anti-Cherry or anti-GFP, protein A/G agarose; lysis buffer 50 mM Tris-Cl pH 7.5, 50 mM NaCl, 5 mM EDTA, 1% NP-40; 4 C; western blot.

Results are given in words; binding and its absence hold for the method and conditions named. In cells and extracts the contact can be indirect. Some entries that bind do so weakly or less than the wild type. Tags and fused reporters may be left off the sequences shown.

For the substance “EGFP-E2F4 fusion protein (E2F transcription factor 4) (from UniProt Q16254 1-413)”, the binding result is listed as “binds”.
